Assay results: publication PMC2896474, “Thioredoxin A Active-Site Mutants Form Mixed Disulfide Dimers That Resemble Enzyme–Substrate Reaction Intermediates” (Journal of Molecular Biology, 2008)
Numbering of substitutions follows the chain as printed. In names and notes the source's numbering stands. No constants are given. Whether binding was seen depends on the method and setting. Sequences can lack the tags named with a protein.

B1: C29S single-mutant BsTrxA, C-terminal His6-tag (enzyme, B. subtilis 168, UniProt P14949 1-104, looked up)
chain: MAIVKATDQSFSAETSEGVVLADFWAPWSGPCKMIAPVLEELDQEMGDKLKIVKIDVDENQETAGKYGVMSIPTLLVLKDGEVVETSVGFKPKEALQELVNKHL
notes: Vector probably adds Leu-Glu before His6 (surmised); also called C29S BsTrxA; BsTrxA(C29S); source: E. coli BL21(DE3), purified (nickel IMAC HisTrap HP, Superdex 75 gel filtration); not shown: His6, C-terminal, kept
B2: C32S single-mutant BsTrxA, C-terminal His6-tag (enzyme, B. subtilis 168, UniProt P14949 1-104, looked up)
chain: B1 chain with S29C, C32S
notes: In the homodimer the two chains are joined by a Cys29-Cys29 disulfide bond (crystal structure 2VOC); Vector probably adds Leu-Glu before His6 (surmised); also called C32S BsTrxA; TrxA C32S; source: E. coli BL21(DE3), purified (nickel IMAC HisTrap HP, Superdex 75 gel filtration); not shown: His6, C-terminal, kept

Key:
[1] = target: C29S single-mutant BsTrxA, C-terminal His6-tag (B. subtilis 168) (UniProt P14949); assay: reducing SDS-PAGE + capillary gel electrophoresis (2100 Bioanalyzer); purified His6-tagged BsTrxA proteins alone, 10 mM DTT added to the samples before electrophoresis (Fig. 2a, lanes + DTT); both purified
[2] = target: C29S single-mutant BsTrxA, C-terminal His6-tag (B. subtilis 168) (UniProt P14949); assay: nonreducing SDS-PAGE + capillary gel electrophoresis (2100 Bioanalyzer) after AMS labelling; purified His6-tagged BsTrxA proteins alone, incubated with 0.3 mM AMS, no DTT (Fig. 2a, lanes + AMS); both purified
[3] = target: C32S single-mutant BsTrxA, C-terminal His6-tag (B. subtilis 168) (UniProt P14949); assay: reducing SDS-PAGE + capillary gel electrophoresis (2100 Bioanalyzer); purified His6-tagged BsTrxA proteins alone, 10 mM DTT added to the samples before electrophoresis (Fig. 2a, lanes + DTT); both purified

Binder | binding [1] | binding [2] | binding [3]
B1 | no binding (condition: with 10 mM DTT) | no binding (condition: with 0.3 mM AMS) | 
B2 |  |  | no binding (condition: with 10 mM DTT)
